Test results reported in PMC6071395.

Protein sequences, listed by entry. Tags and fused reporters are not part of them. Lines headed by an entry give the natural chain unless they say otherwise; changes in a name come on top.
UniProt Q15910: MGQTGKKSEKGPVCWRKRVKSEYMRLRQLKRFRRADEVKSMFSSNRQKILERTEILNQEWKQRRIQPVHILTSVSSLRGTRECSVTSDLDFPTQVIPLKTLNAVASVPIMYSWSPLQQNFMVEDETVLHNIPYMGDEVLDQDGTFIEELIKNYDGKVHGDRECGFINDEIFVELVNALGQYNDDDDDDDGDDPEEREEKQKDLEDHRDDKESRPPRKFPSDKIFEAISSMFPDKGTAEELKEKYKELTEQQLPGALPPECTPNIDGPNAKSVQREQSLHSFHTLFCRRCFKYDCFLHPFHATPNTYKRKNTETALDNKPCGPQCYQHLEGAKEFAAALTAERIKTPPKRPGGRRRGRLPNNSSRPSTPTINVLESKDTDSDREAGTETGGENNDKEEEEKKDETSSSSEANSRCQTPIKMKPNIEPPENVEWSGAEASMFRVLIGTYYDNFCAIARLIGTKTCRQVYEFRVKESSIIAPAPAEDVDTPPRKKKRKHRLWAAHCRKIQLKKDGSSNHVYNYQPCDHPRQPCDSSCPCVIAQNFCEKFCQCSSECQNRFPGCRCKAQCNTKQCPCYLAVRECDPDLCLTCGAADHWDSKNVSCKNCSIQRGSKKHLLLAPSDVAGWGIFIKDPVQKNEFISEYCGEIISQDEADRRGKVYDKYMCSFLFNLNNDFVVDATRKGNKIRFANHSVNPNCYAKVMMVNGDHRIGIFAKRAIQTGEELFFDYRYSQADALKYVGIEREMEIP
UniProt P12004: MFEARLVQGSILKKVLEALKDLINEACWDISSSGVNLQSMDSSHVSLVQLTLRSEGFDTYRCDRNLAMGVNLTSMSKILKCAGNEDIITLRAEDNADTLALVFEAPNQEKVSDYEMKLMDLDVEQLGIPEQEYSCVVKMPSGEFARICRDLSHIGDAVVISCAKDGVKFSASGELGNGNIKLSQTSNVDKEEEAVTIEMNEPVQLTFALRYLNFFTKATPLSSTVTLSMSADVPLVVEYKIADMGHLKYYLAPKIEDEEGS

Biological target: FLAG-tagged full-length EZH2 with mutations of conserved PIP box amino acids (EZH2∆PIP) (UniProt Q15910)
Assay: co-IP; 293T cells transfected with FLAG-tagged EZH2, EZH2∆SET or EZH2∆PIP; IP with FLAG antibody, blot for endogenous PCNA; IgG as control

binding: no binding
Substance: Proliferating cell nuclear antigen (PCNA), endogenous (from UniProt P12004 1-261)

No constants are given. Whether binding was seen depends on the method and setting. Binding seen in cells or lysates may run through a third protein.
